Experimental data from PubChem BioAssay AID743266 (National Center for Advancing Translational Sciences (NCATS), 2014).
Hit rate of the full screen: of about 410,000 compounds, about 310 (0.076%) were called active. This list was built around the results that the source calls inconclusive (neither active nor inactive); the mix of calls is not that of the screen. Calls follow the shape of the dose curve; as a rule, active = well fitted activation curve with a large enough effect; inconclusive = small, poorly fitted or top-dose-only effect, or another doubt; inactive = no such curve, though single readings can be large or run the other way. Potencies of inconclusive entries are doubtful fits and often do not repeat.

Protein sequences, listed by entry. Tags and fused reporters are not part of them.
UniProt Q03431, whole entry, looked up: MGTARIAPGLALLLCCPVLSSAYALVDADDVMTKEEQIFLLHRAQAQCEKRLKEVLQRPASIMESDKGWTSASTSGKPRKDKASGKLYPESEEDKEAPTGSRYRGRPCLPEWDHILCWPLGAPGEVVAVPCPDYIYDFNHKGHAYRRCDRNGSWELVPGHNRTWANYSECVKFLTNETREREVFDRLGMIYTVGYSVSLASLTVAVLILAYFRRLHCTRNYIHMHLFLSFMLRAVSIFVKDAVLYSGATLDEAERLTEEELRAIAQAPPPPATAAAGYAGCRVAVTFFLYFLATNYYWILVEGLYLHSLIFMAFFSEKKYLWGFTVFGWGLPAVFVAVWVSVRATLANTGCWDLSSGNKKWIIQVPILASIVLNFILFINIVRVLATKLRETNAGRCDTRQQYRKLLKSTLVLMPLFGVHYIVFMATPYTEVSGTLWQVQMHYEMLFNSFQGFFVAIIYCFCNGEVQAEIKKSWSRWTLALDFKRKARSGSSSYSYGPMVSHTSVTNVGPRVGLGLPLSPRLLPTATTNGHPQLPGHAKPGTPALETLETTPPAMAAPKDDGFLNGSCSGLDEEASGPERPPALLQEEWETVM

Each molecule was assayed against Parathyroid hormone/parathyroid hormone-related peptide receptor (Homo sapiens) (UniProt Q03431) (assay: qHTS for PTHR1 Agonists: Primary Screen). Settings: HEK293 GP2 PTHR1 cells, GloSensor cAMP luminescence, 1 h; activation: at 115 µM (top of the series) unless noted; series mostly up to 115 µM.
Summary of the method: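 HEK-293-derived GP2 cells expressing PTHR1 and a GloSensor cAMP reporter, 3,000/well, plated overnight, given luciferin plus IBMX (each 0.5 mM as added) for 1 h at 37 °C, then compound for 1 h at 37 °C. Luminescence was read after 15 min at room temperature.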
Also: nearly all actives have a fitted effect of over 55% in size.
Potency is read from the fitted curve at half-maximal effect.

activation, inconclusive:
CCCCC(=O)N1C/C=C\C(c2ccc(OC)cc2)N(Cc2ccc(F)cc2)C(=O)C1 (stereo unspecified) 56.5% [activator]
O=C(Cc1cccs1)NCc1ccccc1Br -45.9% [activator]
O=C(O)/C=C/C(=O)N1CCN(c2cccc(Cl)c2)CC1 87.6% [activator]
O=C(CSc1ccc(C(F)(F)F)cc1[N+](=O)[O-])N1CCOCC1 35% [activator]

Potency, inconclusive:
COc1ccc(OCc2nn3c(-c4ccccn4)nnc3s2)cc1 89.1 µM [activator, single point]
CSc1nsc(SCC(=O)Nc2ccc(C(N)=O)cc2)n1 3.98 µM [activator, partial curve, poor fit]
COc1ccc(C2c3c(n(C)c4ccccc34)C(=O)N2CC(=O)Nc2ccc(C)c(Cl)c2)cc1 (stereo unspecified) 126 µM [activator, single point]
CC(=O)c1ccccc1OC(=O)c1ccco1 25.1 µM [activator, partial curve, poor fit]
O=C(NCCNS(=O)(=O)c1ccccc1Cl)c1cc(OCC(F)(F)F)ccc1OCC(F)(F)F 112 µM [activator, single point]
COc1ccc(OC)c(NS(=O)(=O)c2cc(OC)ccc2OC)c1 35.5 µM [activator, single point]
CCCc1nc(-c2ccccc2)c(-c2ccc(OC)c(OC)c2)c(=O)[nH]1 63.1 µM [activator, partial curve, poor fit]
CCOC(=O)C1NC(=O)CC1c1ccccc1 (stereo unspecified) 5.01 µM [activator, partial curve, poor fit]
CCCCCCC(C)n1[nH]c(=O)cc1N (stereo unspecified) 17.8 µM [activator, full curve, poor fit]
CC(=O)OC1CC2(C)C(=O)CCC2C2CCc3cc(O)ccc3C12 (stereo unspecified) 25.1 µM [activator, partial curve, poor fit]

Potency, inactive:
COc1ccc(OC)c(NC(=O)CCN2CCN(c3ccccc3OC)CC2)c1
S=C(NCCSCc1ccc(Cl)cc1)Nc1ccccc1
CC(=NNC(=S)N1CCCCCC1)c1cccc2cccnc12
O=C(COc1ccc([N+](=O)[O-])cc1)Nc1ccc(NC(=O)c2ccccc2)cc1
O=C(OCCCOc1ccc(F)cc1)c1ccc(O)cc1O
CN(C)CCOc1ccccc1-c1ccccc1
CCN(c1ccccc1)c1nnc(NC(=O)Nc2ccc(Br)cc2)s1

No new results follow: 3 of the compounds above.
Potency, inactive:
S=C(NCCSCc1ccc(Cl)cc1)Nc1ccccc1
CC(=NNC(=S)N1CCCCCC1)c1cccc2cccnc12
O=C(COc1ccc([N+](=O)[O-])cc1)Nc1ccc(NC(=O)c2ccccc2)cc1
